According to paper doi:10.1101/2024.01.24.576984 (bioRxiv, 2024):
No constants are given. Whether binding was seen depends on the method and setting. In cells and extracts the contact can be indirect. Some binding calls cover weakened binding; strength is not graded here. For part of these data: Tags and fused reporters may be left off the sequences shown.

Protein sequences, listed by entry. Tags and fused reporters are not part of them.
UniProt P51858: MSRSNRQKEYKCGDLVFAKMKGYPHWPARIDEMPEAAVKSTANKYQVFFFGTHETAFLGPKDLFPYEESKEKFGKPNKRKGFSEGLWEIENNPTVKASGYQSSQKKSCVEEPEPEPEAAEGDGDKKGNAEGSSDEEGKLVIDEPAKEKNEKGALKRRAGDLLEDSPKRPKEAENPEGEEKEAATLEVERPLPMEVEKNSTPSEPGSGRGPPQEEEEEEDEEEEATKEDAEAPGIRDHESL
UniProt Q9NVM9: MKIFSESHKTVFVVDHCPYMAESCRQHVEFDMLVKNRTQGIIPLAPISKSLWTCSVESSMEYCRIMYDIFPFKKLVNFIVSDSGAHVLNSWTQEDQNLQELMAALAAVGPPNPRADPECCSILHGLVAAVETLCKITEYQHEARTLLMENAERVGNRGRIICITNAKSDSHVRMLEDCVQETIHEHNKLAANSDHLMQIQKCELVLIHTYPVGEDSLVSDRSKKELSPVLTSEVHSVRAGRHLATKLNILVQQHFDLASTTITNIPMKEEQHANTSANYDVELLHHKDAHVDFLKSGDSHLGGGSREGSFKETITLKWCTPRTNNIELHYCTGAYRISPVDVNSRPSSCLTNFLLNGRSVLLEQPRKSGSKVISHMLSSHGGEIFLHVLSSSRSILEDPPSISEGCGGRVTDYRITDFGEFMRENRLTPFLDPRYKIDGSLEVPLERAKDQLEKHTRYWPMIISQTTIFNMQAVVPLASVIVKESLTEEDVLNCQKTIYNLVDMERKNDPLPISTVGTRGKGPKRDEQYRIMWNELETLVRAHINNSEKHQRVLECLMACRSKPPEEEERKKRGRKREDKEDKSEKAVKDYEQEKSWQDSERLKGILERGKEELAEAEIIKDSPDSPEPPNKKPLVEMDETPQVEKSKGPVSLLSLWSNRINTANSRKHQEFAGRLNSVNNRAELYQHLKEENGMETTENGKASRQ

Assays:
Assay in all cases: co-IP
V5-SBP-HDGF (human) = V5-SBP-HDGF (human) (UniProt P51858)
V5-SBP-ICE2 (human) = biological target: T1, V5-SBP-ICE2 (human) (UniProt Q659A1)
T1 sequence: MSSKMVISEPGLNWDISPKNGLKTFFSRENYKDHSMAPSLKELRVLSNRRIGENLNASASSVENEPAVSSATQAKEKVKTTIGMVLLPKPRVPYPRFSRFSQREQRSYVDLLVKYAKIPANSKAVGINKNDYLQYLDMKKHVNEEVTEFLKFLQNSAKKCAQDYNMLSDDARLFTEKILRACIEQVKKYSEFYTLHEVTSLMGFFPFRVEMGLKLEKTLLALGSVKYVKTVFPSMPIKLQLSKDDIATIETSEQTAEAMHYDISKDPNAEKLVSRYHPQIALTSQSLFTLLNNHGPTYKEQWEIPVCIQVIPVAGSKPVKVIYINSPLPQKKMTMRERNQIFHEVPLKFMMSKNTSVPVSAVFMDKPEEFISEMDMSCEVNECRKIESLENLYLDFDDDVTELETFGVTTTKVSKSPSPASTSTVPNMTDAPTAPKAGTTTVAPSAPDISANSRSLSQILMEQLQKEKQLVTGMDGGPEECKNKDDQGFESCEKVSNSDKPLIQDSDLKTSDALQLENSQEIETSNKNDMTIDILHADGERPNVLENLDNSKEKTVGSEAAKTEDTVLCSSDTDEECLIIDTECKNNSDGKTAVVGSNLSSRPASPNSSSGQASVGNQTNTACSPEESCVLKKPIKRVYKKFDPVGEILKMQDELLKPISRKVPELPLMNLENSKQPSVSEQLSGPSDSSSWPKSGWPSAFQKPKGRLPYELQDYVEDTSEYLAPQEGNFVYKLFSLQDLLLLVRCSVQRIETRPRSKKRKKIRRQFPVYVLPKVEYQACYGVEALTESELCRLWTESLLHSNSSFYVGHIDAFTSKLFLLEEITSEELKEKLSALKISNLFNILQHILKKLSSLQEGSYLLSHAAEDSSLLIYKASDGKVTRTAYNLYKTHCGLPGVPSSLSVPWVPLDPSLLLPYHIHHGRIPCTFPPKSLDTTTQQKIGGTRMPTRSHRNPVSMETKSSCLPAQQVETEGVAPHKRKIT

V5-SBP-ZMYND8 (human) = biological target: T2, V5-SBP-ZMYND8 (human) (UniProt Q9ULU4)
T2 sequence: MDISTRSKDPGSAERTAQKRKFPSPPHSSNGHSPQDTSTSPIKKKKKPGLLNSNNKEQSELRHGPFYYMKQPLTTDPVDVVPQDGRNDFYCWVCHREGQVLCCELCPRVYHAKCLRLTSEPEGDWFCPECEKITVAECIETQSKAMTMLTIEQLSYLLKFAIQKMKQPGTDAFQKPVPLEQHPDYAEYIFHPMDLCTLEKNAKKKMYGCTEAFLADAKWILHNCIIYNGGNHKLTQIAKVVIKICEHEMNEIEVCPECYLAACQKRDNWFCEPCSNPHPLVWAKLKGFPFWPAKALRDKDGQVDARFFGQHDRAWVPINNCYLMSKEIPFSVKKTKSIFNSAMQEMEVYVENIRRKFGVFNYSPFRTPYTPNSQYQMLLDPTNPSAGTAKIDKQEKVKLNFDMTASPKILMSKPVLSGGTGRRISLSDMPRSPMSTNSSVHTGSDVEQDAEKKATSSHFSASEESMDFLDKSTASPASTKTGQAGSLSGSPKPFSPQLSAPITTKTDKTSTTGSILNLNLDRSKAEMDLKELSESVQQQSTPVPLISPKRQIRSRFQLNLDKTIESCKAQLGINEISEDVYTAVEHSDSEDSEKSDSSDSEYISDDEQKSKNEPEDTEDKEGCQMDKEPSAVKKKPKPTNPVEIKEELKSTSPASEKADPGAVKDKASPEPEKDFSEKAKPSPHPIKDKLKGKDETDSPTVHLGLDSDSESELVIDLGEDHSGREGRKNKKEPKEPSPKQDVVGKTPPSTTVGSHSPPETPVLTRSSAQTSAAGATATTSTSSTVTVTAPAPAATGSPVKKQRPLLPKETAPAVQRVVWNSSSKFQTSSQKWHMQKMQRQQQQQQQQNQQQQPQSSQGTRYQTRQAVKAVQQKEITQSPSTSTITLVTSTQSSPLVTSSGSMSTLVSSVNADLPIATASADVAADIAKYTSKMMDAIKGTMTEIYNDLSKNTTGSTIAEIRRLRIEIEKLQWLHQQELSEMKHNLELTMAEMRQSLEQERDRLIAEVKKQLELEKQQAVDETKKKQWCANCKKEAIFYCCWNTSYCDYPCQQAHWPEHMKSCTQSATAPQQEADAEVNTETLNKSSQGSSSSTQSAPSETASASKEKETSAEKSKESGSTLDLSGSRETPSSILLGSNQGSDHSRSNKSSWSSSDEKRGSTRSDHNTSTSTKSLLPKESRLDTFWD

Measured: binding

INTS13 (from UniProt Q9NVM9 1-706)
binds: all assays above
